The other results are listed elsewhere or left out. The data scatter; read single values as rough.
What was measured:
[1] = compound: ClCC(=O)N[C@@H]1CCCc2ccccc12; test: log2 mean competition ratio of IA-DTB cysteine labelling (DMSO/compound) (log2 ratio); higher = stronger cysteine engagement by compound; conditions: treatment time: 4 h, cell line lysate: HEK293T
Procedure: (§1)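 IA-DTB competitive cysteine chemoproteomics in HEK293T RIPA lysate. Lysates were treated with compound 29 or 30 at 50 or 200 µM for 4 h, then IA-DTB (500 µM, 1 h), trypsin-digested, NeutrAvidin-enriched and analysed by diaPASEF. Competition ratio = intensity DMSO / intensity compound (n=4 treated, n=64 DMSO); binding: mean log2 CR ≥ 1 and p ≤ 0.05 plus QC filters. Target is the cysteine site.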

Amino acid sequences for entries named in this document (tags omitted). A change or cut given only in a name is not applied to a line headed by its entry. Residues count along the entry.
UniProt Q9BQI3, 247-270: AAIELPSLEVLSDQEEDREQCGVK
UniProt O95905, 7-26: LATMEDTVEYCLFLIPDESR
UniProt Q14204, whole entry, looked up: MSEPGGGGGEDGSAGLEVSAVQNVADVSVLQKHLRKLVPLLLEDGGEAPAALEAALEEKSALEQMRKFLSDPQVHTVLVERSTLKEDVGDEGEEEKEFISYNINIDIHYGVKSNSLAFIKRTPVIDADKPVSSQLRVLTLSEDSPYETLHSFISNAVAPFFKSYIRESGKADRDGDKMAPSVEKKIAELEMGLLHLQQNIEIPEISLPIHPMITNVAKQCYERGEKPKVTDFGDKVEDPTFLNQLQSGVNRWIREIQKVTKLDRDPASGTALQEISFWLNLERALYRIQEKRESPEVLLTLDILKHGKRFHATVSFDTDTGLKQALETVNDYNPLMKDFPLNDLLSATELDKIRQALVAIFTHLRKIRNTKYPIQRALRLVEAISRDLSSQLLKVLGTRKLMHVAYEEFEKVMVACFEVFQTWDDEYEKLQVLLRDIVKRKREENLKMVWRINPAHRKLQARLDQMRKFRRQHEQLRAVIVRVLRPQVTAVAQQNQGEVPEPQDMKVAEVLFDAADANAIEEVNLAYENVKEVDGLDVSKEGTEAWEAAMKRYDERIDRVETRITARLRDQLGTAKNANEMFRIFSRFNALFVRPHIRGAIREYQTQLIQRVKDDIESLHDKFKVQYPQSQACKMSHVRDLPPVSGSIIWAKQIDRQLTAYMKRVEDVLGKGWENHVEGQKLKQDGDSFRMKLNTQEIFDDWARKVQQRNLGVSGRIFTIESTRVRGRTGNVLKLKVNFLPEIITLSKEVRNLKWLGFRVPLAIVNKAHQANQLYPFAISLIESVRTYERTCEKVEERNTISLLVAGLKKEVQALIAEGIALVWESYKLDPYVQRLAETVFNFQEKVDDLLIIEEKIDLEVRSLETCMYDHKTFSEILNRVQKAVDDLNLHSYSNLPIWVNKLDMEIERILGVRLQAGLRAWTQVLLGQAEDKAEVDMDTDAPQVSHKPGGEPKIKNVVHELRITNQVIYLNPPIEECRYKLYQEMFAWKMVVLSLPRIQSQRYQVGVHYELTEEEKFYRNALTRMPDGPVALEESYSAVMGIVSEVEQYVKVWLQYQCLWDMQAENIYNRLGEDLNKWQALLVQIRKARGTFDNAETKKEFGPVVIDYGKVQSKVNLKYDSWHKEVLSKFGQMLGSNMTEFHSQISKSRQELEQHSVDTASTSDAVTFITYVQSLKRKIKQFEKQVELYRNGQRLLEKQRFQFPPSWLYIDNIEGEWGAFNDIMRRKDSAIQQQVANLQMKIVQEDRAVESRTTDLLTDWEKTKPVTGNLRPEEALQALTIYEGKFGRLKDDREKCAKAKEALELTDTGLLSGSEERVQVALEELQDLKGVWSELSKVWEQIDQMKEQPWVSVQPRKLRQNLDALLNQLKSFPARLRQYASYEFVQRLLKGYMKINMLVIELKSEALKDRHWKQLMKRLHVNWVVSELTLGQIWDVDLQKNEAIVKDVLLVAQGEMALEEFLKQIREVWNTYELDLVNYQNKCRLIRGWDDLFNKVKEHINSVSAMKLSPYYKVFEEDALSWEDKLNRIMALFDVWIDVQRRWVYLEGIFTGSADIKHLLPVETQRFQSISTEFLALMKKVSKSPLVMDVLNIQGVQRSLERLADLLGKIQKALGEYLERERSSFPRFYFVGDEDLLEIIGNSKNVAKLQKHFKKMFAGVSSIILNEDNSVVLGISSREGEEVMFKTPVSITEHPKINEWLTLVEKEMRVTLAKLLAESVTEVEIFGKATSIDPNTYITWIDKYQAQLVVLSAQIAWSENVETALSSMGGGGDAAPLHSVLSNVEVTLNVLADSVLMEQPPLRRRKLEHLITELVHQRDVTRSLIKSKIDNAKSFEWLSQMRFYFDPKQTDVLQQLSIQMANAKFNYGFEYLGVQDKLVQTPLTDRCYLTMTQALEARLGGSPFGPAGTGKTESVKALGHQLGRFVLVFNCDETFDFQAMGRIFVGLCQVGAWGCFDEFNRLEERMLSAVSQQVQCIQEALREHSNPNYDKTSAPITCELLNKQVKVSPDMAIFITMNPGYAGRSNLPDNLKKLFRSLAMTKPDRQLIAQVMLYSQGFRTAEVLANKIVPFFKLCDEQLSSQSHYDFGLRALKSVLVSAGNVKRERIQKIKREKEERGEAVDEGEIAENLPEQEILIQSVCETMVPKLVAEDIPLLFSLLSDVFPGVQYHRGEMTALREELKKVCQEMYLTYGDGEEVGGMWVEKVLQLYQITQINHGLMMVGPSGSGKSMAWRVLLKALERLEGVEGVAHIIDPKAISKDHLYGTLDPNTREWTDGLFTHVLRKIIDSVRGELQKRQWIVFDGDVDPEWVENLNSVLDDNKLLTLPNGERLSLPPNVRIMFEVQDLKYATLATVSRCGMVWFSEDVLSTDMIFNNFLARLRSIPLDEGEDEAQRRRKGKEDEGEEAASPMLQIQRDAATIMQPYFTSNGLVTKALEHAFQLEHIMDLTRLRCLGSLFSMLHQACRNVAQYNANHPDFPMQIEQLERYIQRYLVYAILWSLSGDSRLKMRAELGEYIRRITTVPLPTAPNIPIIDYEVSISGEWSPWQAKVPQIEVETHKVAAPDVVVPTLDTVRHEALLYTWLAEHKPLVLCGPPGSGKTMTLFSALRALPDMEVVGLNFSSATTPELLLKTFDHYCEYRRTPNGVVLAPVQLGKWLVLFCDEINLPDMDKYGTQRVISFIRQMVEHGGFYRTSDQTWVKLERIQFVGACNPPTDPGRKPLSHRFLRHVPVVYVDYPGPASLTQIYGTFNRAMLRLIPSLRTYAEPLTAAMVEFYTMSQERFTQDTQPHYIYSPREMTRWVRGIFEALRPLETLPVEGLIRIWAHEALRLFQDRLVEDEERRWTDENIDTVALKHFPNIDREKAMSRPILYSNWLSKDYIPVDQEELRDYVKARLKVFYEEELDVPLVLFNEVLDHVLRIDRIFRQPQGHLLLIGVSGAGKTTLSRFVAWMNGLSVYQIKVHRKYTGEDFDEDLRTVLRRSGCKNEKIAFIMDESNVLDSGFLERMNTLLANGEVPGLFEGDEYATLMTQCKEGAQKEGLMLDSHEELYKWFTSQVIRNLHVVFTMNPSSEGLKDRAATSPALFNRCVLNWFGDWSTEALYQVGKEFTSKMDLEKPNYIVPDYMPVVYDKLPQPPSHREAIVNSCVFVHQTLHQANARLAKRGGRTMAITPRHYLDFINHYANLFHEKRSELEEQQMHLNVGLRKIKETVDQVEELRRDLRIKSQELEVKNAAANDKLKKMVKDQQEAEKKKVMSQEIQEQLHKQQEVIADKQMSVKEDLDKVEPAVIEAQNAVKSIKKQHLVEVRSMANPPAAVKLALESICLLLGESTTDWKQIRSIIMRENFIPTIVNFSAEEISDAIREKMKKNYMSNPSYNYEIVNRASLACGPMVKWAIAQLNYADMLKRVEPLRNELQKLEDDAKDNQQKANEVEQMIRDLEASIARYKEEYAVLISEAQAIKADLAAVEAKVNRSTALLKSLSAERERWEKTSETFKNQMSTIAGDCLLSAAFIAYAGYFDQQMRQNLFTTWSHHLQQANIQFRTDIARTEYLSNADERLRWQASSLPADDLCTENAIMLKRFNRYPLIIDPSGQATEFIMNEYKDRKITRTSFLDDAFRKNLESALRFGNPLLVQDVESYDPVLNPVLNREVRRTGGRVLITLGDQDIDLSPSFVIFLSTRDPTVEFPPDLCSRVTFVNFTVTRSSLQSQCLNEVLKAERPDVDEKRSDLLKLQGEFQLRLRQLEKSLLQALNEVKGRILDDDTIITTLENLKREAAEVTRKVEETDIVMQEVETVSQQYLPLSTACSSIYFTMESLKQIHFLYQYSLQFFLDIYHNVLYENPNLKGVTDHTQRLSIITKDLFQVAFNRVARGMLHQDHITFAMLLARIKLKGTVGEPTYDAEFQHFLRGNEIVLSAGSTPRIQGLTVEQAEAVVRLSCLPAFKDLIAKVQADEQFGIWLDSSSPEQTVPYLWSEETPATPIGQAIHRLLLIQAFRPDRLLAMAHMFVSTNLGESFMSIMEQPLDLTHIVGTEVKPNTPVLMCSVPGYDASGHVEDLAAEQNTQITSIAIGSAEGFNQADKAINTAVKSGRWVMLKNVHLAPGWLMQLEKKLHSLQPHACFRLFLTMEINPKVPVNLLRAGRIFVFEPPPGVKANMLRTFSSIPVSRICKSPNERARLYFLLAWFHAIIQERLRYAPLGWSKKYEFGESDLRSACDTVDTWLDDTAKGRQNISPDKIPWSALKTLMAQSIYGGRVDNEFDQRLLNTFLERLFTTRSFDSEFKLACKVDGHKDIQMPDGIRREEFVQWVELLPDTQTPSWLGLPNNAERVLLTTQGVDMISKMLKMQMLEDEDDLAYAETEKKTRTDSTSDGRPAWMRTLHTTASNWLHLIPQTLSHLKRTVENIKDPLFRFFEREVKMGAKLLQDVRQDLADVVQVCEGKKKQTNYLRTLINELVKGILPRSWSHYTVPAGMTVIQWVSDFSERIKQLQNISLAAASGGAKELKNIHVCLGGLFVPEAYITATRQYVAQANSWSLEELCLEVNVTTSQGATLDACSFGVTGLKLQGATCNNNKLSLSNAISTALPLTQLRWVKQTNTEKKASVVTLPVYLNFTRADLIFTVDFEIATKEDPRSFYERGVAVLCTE
UniProt P98172: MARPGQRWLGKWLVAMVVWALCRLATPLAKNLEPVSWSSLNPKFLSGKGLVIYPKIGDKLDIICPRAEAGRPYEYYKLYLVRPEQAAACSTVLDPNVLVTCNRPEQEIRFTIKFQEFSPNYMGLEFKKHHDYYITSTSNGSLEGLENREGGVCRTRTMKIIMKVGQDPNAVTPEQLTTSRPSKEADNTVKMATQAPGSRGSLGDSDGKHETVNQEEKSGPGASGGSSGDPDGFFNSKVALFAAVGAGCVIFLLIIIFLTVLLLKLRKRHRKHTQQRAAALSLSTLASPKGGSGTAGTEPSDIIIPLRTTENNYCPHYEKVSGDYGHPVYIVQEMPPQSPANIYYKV
UniProt Q9BQ52: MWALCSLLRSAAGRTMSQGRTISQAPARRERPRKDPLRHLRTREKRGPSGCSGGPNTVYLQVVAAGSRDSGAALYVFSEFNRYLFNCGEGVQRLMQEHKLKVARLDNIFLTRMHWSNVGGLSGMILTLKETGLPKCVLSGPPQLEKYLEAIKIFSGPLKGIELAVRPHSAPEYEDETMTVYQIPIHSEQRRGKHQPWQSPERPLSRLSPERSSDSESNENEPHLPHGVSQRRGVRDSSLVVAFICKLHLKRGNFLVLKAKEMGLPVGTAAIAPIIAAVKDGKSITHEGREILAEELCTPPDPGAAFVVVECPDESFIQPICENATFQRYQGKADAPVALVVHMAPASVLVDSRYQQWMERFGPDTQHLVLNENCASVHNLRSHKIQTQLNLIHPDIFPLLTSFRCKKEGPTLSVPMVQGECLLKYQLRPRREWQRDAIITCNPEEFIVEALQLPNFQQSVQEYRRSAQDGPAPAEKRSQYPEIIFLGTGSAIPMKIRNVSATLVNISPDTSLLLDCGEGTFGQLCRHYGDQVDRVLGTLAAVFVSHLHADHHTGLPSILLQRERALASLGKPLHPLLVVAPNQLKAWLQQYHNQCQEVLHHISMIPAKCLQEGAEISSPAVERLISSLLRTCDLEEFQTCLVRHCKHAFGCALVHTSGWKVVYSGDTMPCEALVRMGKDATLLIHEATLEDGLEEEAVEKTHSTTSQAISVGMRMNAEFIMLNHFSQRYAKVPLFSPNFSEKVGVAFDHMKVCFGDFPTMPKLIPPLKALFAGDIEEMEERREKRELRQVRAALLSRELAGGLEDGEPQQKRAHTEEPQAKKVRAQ
UniProt Q96G46: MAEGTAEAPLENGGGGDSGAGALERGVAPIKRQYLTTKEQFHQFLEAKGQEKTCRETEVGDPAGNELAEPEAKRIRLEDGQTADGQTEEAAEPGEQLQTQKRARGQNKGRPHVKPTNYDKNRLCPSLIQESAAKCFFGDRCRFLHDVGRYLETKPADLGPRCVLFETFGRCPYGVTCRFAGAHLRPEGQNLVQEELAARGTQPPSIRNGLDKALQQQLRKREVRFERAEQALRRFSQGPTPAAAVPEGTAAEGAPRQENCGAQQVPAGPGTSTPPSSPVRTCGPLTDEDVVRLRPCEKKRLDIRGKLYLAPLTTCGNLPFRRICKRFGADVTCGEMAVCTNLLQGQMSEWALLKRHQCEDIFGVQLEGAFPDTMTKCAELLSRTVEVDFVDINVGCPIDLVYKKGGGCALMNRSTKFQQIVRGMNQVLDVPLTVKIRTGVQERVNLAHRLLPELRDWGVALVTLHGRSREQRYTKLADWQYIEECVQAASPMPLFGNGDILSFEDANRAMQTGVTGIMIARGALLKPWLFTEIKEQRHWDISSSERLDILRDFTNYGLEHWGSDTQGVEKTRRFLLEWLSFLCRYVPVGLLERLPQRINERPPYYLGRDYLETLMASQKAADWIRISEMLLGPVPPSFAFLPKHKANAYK

[2] = compound: ClCC(=O)N[C@H]1CCCc2ccccc12; test: as above; conditions: treatment time: 4 h, cell line lysate: HEK293T
Procedure: as §1

Row | Target | log2 mean competition ratio ([1]; 50 µM) | log2 mean competition ratio ([1]; 200 µM) | log2 mean competition ratio ([2]; 50 µM) | log2 mean competition ratio ([2]; 200 µM)
1 | DSC2 C898 (UniProt Q02487) | -0.0541 | -0.0282 | 0.0781 | 0.0273
2 | EFL1 C831 (UniProt Q7Z2Z2) | 0.179 | -0.0511 | 0.194 | 0.0214
3 | EHMT2 C126 | -0.092 | -0.103 | 0.148 | 0.0104
4 | DTYMK C117 (UniProt P23919) | 0.148 | -0.0696 | 0.226 | 0.0411
5 | ECT2 C584 (UniProt Q9H8V3) | 0.176 | 0.189 | 0.0506 | 0.172
6 | DSP C135 (UniProt P15924) | -0.165 | 0.104 | -0.0775 | 0.0945
7 | DSP C798 (UniProt P15924) | -0.234 | 0.27 | -0.487 | -0.15
8 | EIF2B5 C414 | 0.248 | 0.0138 | 0.12 | -0.178
9 | DSN1 C355 (UniProt Q9H410) | -0.086 | 0.392 | -0.183 | 0.228
10 | EIF2AK1 C267 (UniProt Q9BQI3) | -0.285 | -0.289 | 0.19 | -0.353
11 | EIF4G3 C301 | -0.166 | -0.178 | 0.0788 | 0.0125
12 | EIF3B C515 | -0.0119 | -0.1 | -0.187 | 0.0839
13 | DYNC2I2 C362 | 0.0822 | 0.191 | -0.0884 | 0.118
14 | DSP C57 (UniProt P15924) | -0.483 | 0.0598 | -0.0647 | 0.000447
15 | EEA1 C346 (UniProt Q15075) | -0.214 | 0.167 | -0.251 | 0.173
16 | EDRF1 C1007 (UniProt Q3B7T1) | -0.0229 | 0.304 | -0.548 | 0.135
17 | ECD C17 (UniProt O95905) | -0.694 | -0.621 | 0.23 | -0.481
18 | EFCAB7 C121 (UniProt A8K855) | -0.373 | 0.145 | -0.115 | 0.274
19 | EIF3A C198 (UniProt Q14152) | 0.193 | -0.0771 | 0.186 | -0.224
20 | EEF1AKMT1 C79 (UniProt Q8WVE0) | 0.0298 | -0.176 | -0.386 | 0.0128
21 | EIF3J C207 (UniProt O75822) | -0.0258 | -0.194 | -0.488 | -0.155
22 | DYNC1H1 C633 (UniProt Q14204) | 0.24 | 0.291 | 0.135 | 0.246
23 | DYNC1LI2 C191 (UniProt O43237) | 0.0513 | -0.259 | -0.0311 | -0.0652
24 | DYNC1H1 C1999 (UniProt Q14204) | 0.108 | -0.0344 | 0.085 | 0.0071
25 | DVL1 C72 (UniProt O14640) | -0.0562 | 0.266 | -0.561 | 0.168

Row | Target | log2 mean competition ratio ([1]; 50 µM) | log2 mean competition ratio ([1]; 200 µM) | log2 mean competition ratio ([2]; 50 µM) | log2 mean competition ratio ([2]; 200 µM)
26 | EFNB1 C314 (UniProt P98172) | 0.0427 | -0.103 | 0.0334 | -0.065
27 | ELAC2 C87 (UniProt Q9BQ52) | 0.278 | -0.234 | 0.312 | 0.0918
28 | EIF2D C133 (UniProt P41214) | 0.125 | -0.119 | 0.0556 | -0.232
29 | DYNC1H1 C867 (UniProt Q14204) | -0.0722 | -0.142 | 0.0296 | -0.192
30 | EIF4A2 C67 (UniProt Q14240) | -0.14 | -0.484 | 0.524 | -0.066
31 | EFL1 C670 (UniProt Q7Z2Z2) | -0.0314 | 0.0886 | 0.0431 | -0.0389
32 | EFEMP1 C190 (UniProt Q12805) | -0.000442 | 0.254 | 0.122 | 0.399
33 | DYRK1A C10 (UniProt Q13627) | 0.0232 | -0.175 | -0.256 | -0.0704
34 | ELF2 C110 (UniProt Q15723) | 0.206 | 0.0456 | 0.168 | -0.25
35 | DSTN C163 (UniProt P60981) | 0.152 | 0.415 | 0.334 | 0.305
36 | EIF4G3 C340 | 0.239 | -0.185 | 0.832 | -0.261
37 | EFCAB7 C524 (UniProt A8K855) | -0.123 | 0.176 | -0.213 | 0.00974
38 | ELAC2 C753 (UniProt Q9BQ52) | 0.00868 | 0.208 | -0.518 | 0.24
39 | DUS3L C408 (UniProt Q96G46) | 0.255 | 0.272 | 0.26 | 0.479
40 | DVL1 C382 (UniProt O14640) | 0.227 | 0.117 | -0.0328 | 0.295
41 | EED C182 | 0.501 | 0.127 | 0.102 | 0.184
42 | E2F7 C400 | -0.0596 | -0.167 | -0.322 | 0.0072
43 | EGFR C1058 (UniProt P00533) | 0.195 | 0.283 | -0.132 | 0.458
44 | EEF2KMT C189 (UniProt Q96G04) | 0.503 | -0.174 | 0.547 | 0.407
45 | DTX3 C272 | 0.218 | -0.174 | 0.271 | 0.255
46 | DYNC1H1 C4216 (UniProt Q14204) | -0.232 | 0.246 | -0.21 | 0.394
47 | E2F8 C96 | -0.0464 | 0.0213 | -0.518 | -0.287
48 | DTNB C248 | 0.24 | 0.192 | -0.145 | 0.209
49 | EIF5B C635 (UniProt O60841) | 0.0547 | -0.00775 | -0.692 | -0.0786
50 | EFR3A C538 (UniProt Q14156) | – | -0.0305 | 0.0435 | -0.169

4 entries from above, in CSV form:
Row,Target,log2 mean competition ratio ([1]; 50 µM),log2 mean competition ratio ([1]; 200 µM),log2 mean competition ratio ([2]; 50 µM),log2 mean competition ratio ([2]; 200 µM)
19,EIF3A C198 (UniProt Q14152),0.193,-0.0771,0.186,-0.224
20,EEF1AKMT1 C79 (UniProt Q8WVE0),0.0298,-0.176,-0.386,0.0128
21,EIF3J C207 (UniProt O75822),-0.0258,-0.194,-0.488,-0.155
22,DYNC1H1 C633 (UniProt Q14204),0.24,0.291,0.135,0.246

Reference: the supplement of paper PMC11732987, “Enantioselective OTUD7B fragment discovery through chemoproteomics screening and high-throughput optimisation” (Communications Chemistry, 2025)
